Screening data, single-dose tests

From ChEMBL document CHEMBL3988442, “University of Dundee, Small-Polar-MMV Screening Library” (2021).

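Whole-cell growth test on Mycobacterium tuberculosis, read after 4 days in a medium based on cholesterol and the lipid DPPC; the read-out is not stated. Concentration: 500 µM. The record gives no direction; compounds that gave an IC50 in retests scored well above the rest, so higher reads as more growth inhibition. About 18,000 compounds were tested under these conditions; 5% (about 900) showed 50% or more at least once.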

Each number is a percent effect as filed.
The record does not define 0% and 100%; most values in the screen are far below 50% and negative numbers occur (in some assays of this library far below -100).
Compounds were drawn at random from those tested, without regard to their results.

{"compound": "Cc1ccc(NC(=O)C2CC(=O)N=C(N)S2)cc1Cl", "stereo": "configuration not stated", "effect": 12.66}
{"compound": "Cc1c(C=C2C(=O)Nc3ccc(F)cc32)cnn1C", "effect": -8.669}
{"compound": "CCC(NCC(=O)NC1CC1)c1c(C)noc1C", "stereo": "configuration not stated", "effect": -11.67}
{"compound": "Cc1cc(CN(C)C(=O)C2CCCN2S(C)(=O)=O)no1", "stereo": "configuration not stated", "effect": -4.289}
{"compound": "CCNC(=O)CNc1ccnc2ccc(Br)cc12", "effect": 18.79}
{"compound": "CCN1CCC(CNCc2ccco2)C1", "stereo": "configuration not stated", "effect": -7.241}
{"compound": "CCCN1CCC(C(N)=O)CC1", "effect": -13.97}
{"compound": "CN(CC(N)=O)CC(=O)N(C)Cc1cc(Br)cs1", "effect": -1.357}
{"compound": "CSc1cccc(-n2c(CCN)n[nH]c2=O)c1", "effect": 1.117}
{"compound": "CN1CC(C(=O)N2CCc3cc(Br)ccc32)CC1=O", "stereo": "configuration not stated", "effect": -12.42}
{"compound": "CCCC(N)CNS(=O)(=O)c1cc(F)cc(F)c1", "stereo": "configuration not stated", "effect": 9.691}
{"compound": "CN(C)CCNC(=O)c1cc(Br)cs1", "effect": 12.6}
{"compound": "CCc1cc(CNC(=O)NCc2cnn(C)c2)on1", "effect": -3.015}
{"compound": "Cc1cc(C)c(C(=O)NCC(O)C2CCCC2)c(=O)[nH]1", "stereo": "configuration not stated", "effect": -18.13}
{"compound": "CC1(c2ccccc2)COCCN1", "stereo": "configuration not stated", "effect": 8.716}
{"compound": "COc1ccc(NC2CC(=O)N(C)C2=O)cc1OC", "stereo": "configuration not stated", "effect": 7.149}
{"compound": "COc1ccc(C(O)CNC(=O)Nc2nncs2)cc1", "stereo": "configuration not stated", "effect": 37.92}
{"compound": "Cc1cc(NC(=O)NCC2CSCCS2)on1", "stereo": "configuration not stated", "effect": 1.175}
{"compound": "O=C(c1cccc(N2CCOC2=O)c1)N1CCCC1", "effect": 22.34}
{"compound": "CCN1CCN(Cc2cccc(OC)c2OC)CC1", "effect": 1.75}
{"compound": "Cn1nnnc1SC(C(N)=O)c1ccc(Br)cc1", "stereo": "configuration not stated", "effect": 18.38}
{"compound": "O=C(NC1CCCSC1)N(CCO)C1CC1", "stereo": "configuration not stated", "effect": -17.44}
{"compound": "c1cn(C2CCCNCC2)nn1", "stereo": "configuration not stated", "effect": -11.87}
{"compound": "CNC(C)(CO)c1ccccc1", "stereo": "configuration not stated", "effect": 8.51}
{"compound": "Cc1cc(C(=O)N2CCC(O)(CN(C)C)C2)cc(C)n1", "stereo": "configuration not stated", "effect": 8.628}
{"compound": "C=Cc1ccc(CCN)cc1", "effect": 39.74}
{"compound": "O=C(NC1CCN(C2CC2)CC1)c1ccncc1", "effect": -12.52}
{"compound": "CC(=O)c1cccc(CN2CCCC(O)(CO)CC2)c1", "stereo": "configuration not stated", "effect": -6.074}
{"compound": "CSc1ccc(NC(=O)NCC2(O)CCNC2)cc1", "stereo": "configuration not stated", "effect": 29.35}
{"compound": "CN1CCC(C2CCN(Cc3cccnc3)C2)CC1", "stereo": "configuration not stated", "effect": -21.29}
{"compound": "COCc1cc(=O)c2cc(F)ccc2[nH]1", "effect": -20.23}
{"compound": "CC(=O)NCCNc1nc2c(s1)c(C)nn2C", "effect": 4.737}
{"compound": "CCOc1cc(C)ccc1S(N)(=O)=O", "effect": 14.34}
{"compound": "Cc1cn(CC(=O)NCC[S+](C)[O-])c2ccccc12", "stereo": "configuration not stated", "effect": -17.42}
{"compound": "O=C(NCC1CCS(=O)(=O)C1)c1sccc1OC(F)F", "stereo": "configuration not stated", "effect": 12.27}
{"compound": "Cc1nnc(CN(C)C(=O)CSCC2CC2)o1", "effect": 7.732}
{"compound": "CCc1ccc(S(=O)(=O)N2CC[C@@H](N)C2)cc1CC", "effect": 52.4}
{"compound": "N#Cc1ccc(OCCN)cc1", "effect": 16.82}

For reference, 4 entries once more:

{"compound": "CC(=O)c1cccc(CN2CCCC(O)(CO)CC2)c1", "stereo": "configuration not stated", "effect": -6.074}
{"compound": "Cc1cc(CN(C)C(=O)C2CCCN2S(C)(=O)=O)no1", "stereo": "configuration not stated", "effect": -4.289}
{"compound": "CN(CC(N)=O)CC(=O)N(C)Cc1cc(Br)cs1", "effect": -1.357}
{"compound": "CC1(c2ccccc2)COCCN1", "stereo": "configuration not stated", "effect": 8.716}